Some results were stated once for a whole list of compounds, not compound by compound. At least one structure is not confirmed: it was looked up by name or label, or the drawing left a doubt.
Tested on: HT-29 human colon cancer cells
Assay: Cytotoxicity against HT-29 cells

SMILES | cytotoxicity toward HT-29 cells (in words)
COc1cc2c(O[C@@H]3OC[C@H](OC(C)=O)[C@H](OC(C)=O)[C@H]3O)c3c(c(-c4ccc5c(c4)OCO5)c2cc1OC)C(=O)OC3 [Compound 1, 7-O-[(3,4-di-O-acetyl)-α-L-arabinopyranosyl] diphyllin] | cytotoxic
COc1cc2c(O[C@@H]3OC[C@H](O)[C@H](OC(C)=O)[C@H]3O)c3c(c(-c4ccc5c(c4)OCO5)c2cc1OC)C(=O)OC3 [Compound 2, 7-O-[(3-O-acetyl)-α-L-arabinopyranosyl] diphyllin] | cytotoxic
COc1cc2c(O[C@@H]3OC[C@H](OC(C)=O)[C@H](OC(C)=O)[C@H]3OC(C)=O)c3c(c(-c4ccc5c(c4)OCO5)c2cc1OC)C(=O)OC3 [Compound 7, 7-O-((2,3,4-tri-O-acetyl)-α-L-arabinopyranosyl) diphyllin] | cytotoxic

From patent US20170119806A1, “[…] LACTONE DERIVATIVES AND METHODS OF MAKING AND USING THEREOF” (OHIO STATE INNOVATION FOUNDATION, priority 2014, published 2017)
